Source: PubChem BioAssay AID1224826 (NIAID, 2016)
Shown is one part, drawn at random, of about 17,000 reagents. Over the whole deposit, about 1,110 (6.6%) are marked active. 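Active means lowered or raised reporter signal; replicate intensities are raw and not normalised per plate.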 Reagent sequences are not shown.

- Purpose: 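Regulators of Tlr4 signalling leading to Tnf-alpha expression in macrophages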 (primary screen)
- Cells: RAW264.7 G9 macrophages from mouse bearing reporters for p65 (GFP) and the Tnf promoter (mCherry)
- Reagents: siRNA pool against mouse genes, 100 nM
- Duration: 16 h of LPS stimulation, after 2 days of siRNA transfection
- Challenge: bacterial lipopolysaccharide (Salmonella minnesota R595), 10 ng/ml
- Detection: 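Nuclear mCherry signal of the Tnf promoter reporter measured by imaging after background removal, scaled to each plate median and turned into robust z-scores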
- Direction: Tnf reporter robust z-score: higher = stronger Tnf promoter reporter signal after LPS; Tnf reporter intensity: higher = stronger Tnf promoter reporter signal
- Rule for the call: 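a well counts as active at a score of -1.3 or below (Tlr4 knock-down control median) or above 3 (raised signal); controls and wells holding fewer than 50 cells are excluded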
- Calls: active = Tnf reporter clearly lowered or raised; inactive = no clear change in Tnf reporter

| gene | Tnf reporter robust z-score | fewer than 50 cells in well | Tnf reporter intensity, replicate 1 | Tnf reporter intensity, replicate 2 | call |
| --- | --- | --- | --- | --- | --- |
| Tex12 (testis expressed 12) | – | fewer than 50 cells per well; well left out of calls | 91.4 | 75.1 | inactive |
| Rex2 (reduced expression 2) | 0.61 | enough cells in well | 158 | 150 | inactive |
| Il17re (interleukin 17 receptor E) | -1.62 | enough cells in well | 92 | 56.5 | active |
| Ybx3 (Y box protein 3) | 0.01 | enough cells in well | 294 | 145 | inactive |
| Prmt5 (protein arginine N-methyltransferase 5) | -1.02 | enough cells in well | 186 | 139 | inactive |
| Pou2f3 (POU domain, class 2, transcription factor 3) | -0.25 | enough cells in well | 219 | 181 | inactive |
| Or51ab3 (olfactory receptor family 51 subfamily AB member 3) | 0.53 | enough cells in well | 71.1 | 196 | inactive |
| Farp2 (FERM, RhoGEF and pleckstrin domain protein 2) | 1.56 | enough cells in well | 336 | 368 | inactive |
| Pura (purine rich element binding protein A) | -1.34 | enough cells in well | 179 | 106 | active |
| Rassf2 (Ras association (RalGDS/AF-6) domain family member 2) | -0.03 | enough cells in well | 305 | 203 | inactive |
| Clasrp (CLK4-associating serine/arginine rich protein) | 0.14 | enough cells in well | 66.2 | 106 | inactive |
| Ddx52 (DExD box helicase 52) | -0.55 | enough cells in well | 97.8 | 121 | inactive |
| Tacr2 (tachykinin receptor 2) | -0.93 | enough cells in well | 227 | 49.3 | inactive |
| Pnkd (paroxysmal nonkinesiogenic dyskinesia) | 1.29 | enough cells in well | 172 | 282 | inactive |
| Acrbp (proacrosin binding protein) | -0.48 | enough cells in well | 126 | 202 | inactive |
| Tmco1 (transmembrane and coiled-coil domains 1) | -0.5 | enough cells in well | 182 | 67.9 | inactive |
| Or4f56 (olfactory receptor family 4 subfamily F member 56) | -0.24 | enough cells in well | 170 | 99.7 | inactive |
| Slc25a30 | -0.47 | enough cells in well | 96.2 | 73.2 | inactive |
| Gtpbp4 (GTP binding protein 4) | 0.53 | enough cells in well | 241 | 226 | inactive |
| Sprr1a (small proline-rich protein 1A) | 2.61 | enough cells in well | 200 | 176 | inactive |
| Chsy3 (chondroitin sulfate synthase 3) | – | fewer than 50 cells per well; well left out of calls | 212 | 97 | inactive |
| Scart1 (scavenger receptor family member expressed on T cells 1) | – | fewer than 50 cells per well; well left out of calls | 130 | 81.1 | inactive |
| Npsr1 (neuropeptide S receptor 1) | 0.6 | enough cells in well | 238 | 219 | inactive |
| Ier5 (immediate early response 5) | 6.2 | enough cells in well | 601 | 321 | active |
| Inppl1 (inositol polyphosphate phosphatase-like 1) | -1.37 | enough cells in well | 148 | 66.5 | active |
| Nlgn3 (neuroligin 3) | -0.94 | enough cells in well | 149 | 84.9 | inactive |
| Gnao1 (guanine nucleotide binding protein, alpha O) | -0.34 | enough cells in well | 190 | 263 | inactive |
| Rubcnl | -0.1 | enough cells in well | 169 | 59.6 | inactive |
| Ubn1 (ubinuclein 1) | -0.07 | enough cells in well | 218 | 231 | inactive |
| Mmadhc | – | fewer than 50 cells per well; well left out of calls | 174 | 61.5 | inactive |
| Tpcn1 (two pore channel 1) | – | fewer than 50 cells per well; well left out of calls | 58.8 | 46.8 | inactive |
| Plag1 (pleiomorphic adenoma gene 1) | -0.18 | enough cells in well | 221 | 189 | inactive |
| Gpnmb (glycoprotein (transmembrane) nmb) | -1.37 | enough cells in well | 130 | 89.7 | active |
| Gprc6a (G protein-coupled receptor, family C, group 6, member A) | 0.34 | enough cells in well | 245 | 318 | inactive |
| Cd34 (CD34 antigen) | 0.64 | enough cells in well | 286 | 265 | inactive |
| Ccdc66 (coiled-coil domain containing 66) | 2.08 | enough cells in well | 349 | 175 | inactive |
| Mplkip (M-phase specific PLK1 intereacting protein) | -1.15 | enough cells in well | 142 | 46.2 | inactive |
| Pdha1 (pyruvate dehydrogenase E1 alpha 1) | 0.03 | enough cells in well | 253 | 176 | inactive |

The list goes on; the last 8 above are carried over.
| gene | Tnf reporter robust z-score | fewer than 50 cells in well | Tnf reporter intensity, replicate 1 | Tnf reporter intensity, replicate 2 | call |
| --- | --- | --- | --- | --- | --- |
| Tpcn1 (two pore channel 1) | – | fewer than 50 cells per well; well left out of calls | 58.8 | 46.8 | inactive |
| Plag1 (pleiomorphic adenoma gene 1) | -0.18 | enough cells in well | 221 | 189 | inactive |
| Gpnmb (glycoprotein (transmembrane) nmb) | -1.37 | enough cells in well | 130 | 89.7 | active |
| Gprc6a (G protein-coupled receptor, family C, group 6, member A) | 0.34 | enough cells in well | 245 | 318 | inactive |
| Cd34 (CD34 antigen) | 0.64 | enough cells in well | 286 | 265 | inactive |
| Ccdc66 (coiled-coil domain containing 66) | 2.08 | enough cells in well | 349 | 175 | inactive |
| Mplkip (M-phase specific PLK1 intereacting protein) | -1.15 | enough cells in well | 142 | 46.2 | inactive |
| Pdha1 (pyruvate dehydrogenase E1 alpha 1) | 0.03 | enough cells in well | 253 | 176 | inactive |
| C87436 (expressed sequence C87436) | 0.03 | enough cells in well | 146 | 205 | inactive |
| Fahd2a (fumarylacetoacetate hydrolase domain containing 2A) | -0.17 | enough cells in well | 136 | 153 | inactive |
| Ubtd2 (ubiquitin domain containing 2) | -0.69 | enough cells in well | 110 | 133 | inactive |
| Atg12 (autophagy related 12) | -1.42 | enough cells in well | 92.9 | 82 | active |
| Uts2r (urotensin 2 receptor) | 0.54 | enough cells in well | 232 | 388 | inactive |
| Cops2 (COP9 signalosome subunit 2) | 0.59 | enough cells in well | 255 | 269 | inactive |
| R3hdm2 (R3H domain containing 2) | 1.4 | enough cells in well | 305 | 136 | inactive |
| Or1e25 (olfactory receptor family 1 subfamily E member 25) | -1.25 | enough cells in well | 118 | 60.6 | inactive |
| Mrps24 (mitochondrial ribosomal protein S24) | -0.62 | enough cells in well | 174 | 76.4 | inactive |
| Pja1 (praja ring finger ubiquitin ligase 1) | -0.28 | enough cells in well | 140 | 94.9 | inactive |
| BC024139 (cDNA sequence BC024139) | -1.09 | enough cells in well | 120 | 144 | inactive |
| Cyp27b1 (cytochrome P450, family 27, subfamily b, polypeptide 1) | -0.75 | enough cells in well | 183 | 144 | inactive |
| Prss3b (serine protease 3B) | 0.42 | enough cells in well | 212 | 144 | inactive |
| Zfp395 (zinc finger protein 395) | 0.14 | enough cells in well | 216 | 269 | inactive |
| Rrad (Ras-related associated with diabetes) | 0.24 | enough cells in well | 365 | 201 | inactive |
| Fam13c (family with sequence similarity 13, member C) | 0.5 | enough cells in well | 219 | 111 | inactive |
| Ciao1 (cytosolic iron-sulfur protein assembly 1) | -1.33 | enough cells in well | 82.5 | 85.4 | active |
| Or13c7b (olfactory receptor family 13 subfamily C member 7B) | -0.07 | enough cells in well | 166 | 125 | inactive |
| Ptk7 (PTK7 protein tyrosine kinase 7) | -0.45 | enough cells in well | 159 | 143 | inactive |
| Esyt1 (extended synaptotagmin-like protein 1) | -0.34 | enough cells in well | 189 | 263 | inactive |
| Nudt2 (nudix hydrolase 2) | -0.16 | enough cells in well | 190 | 202 | inactive |
| Rragc (Ras-related GTP binding C) | -0.03 | enough cells in well | 141 | 111 | inactive |
| Cyp2j6 (cytochrome P450, family 2, subfamily j, polypeptide 6) | 0.65 | enough cells in well | 259 | 180 | inactive |
| Ctse (cathepsin E) | 1.26 | enough cells in well | 294 | 330 | inactive |
| Crabp2 (cellular retinoic acid binding protein II) | 1.16 | enough cells in well | 268 | 233 | inactive |
| Iffo2 (intermediate filament family orphan 2) | 1.27 | enough cells in well | 183 | 323 | inactive |
| Shisa7 (shisa family member 7) | – | fewer than 50 cells per well; well left out of calls | 72.4 | 183 | inactive |
| Clcn5 (chloride channel, voltage-sensitive 5) | 0.29 | enough cells in well | 244 | 254 | inactive |
| Gna15 (guanine nucleotide binding protein, alpha 15) | -0.27 | enough cells in well | 198 | 265 | inactive |
| Sult1a1 (sulfotransferase family 1A, phenol-preferring, member 1) | -0.59 | enough cells in well | 259 | 142 | inactive |
| Ceacam19 (CEA cell adhesion molecule 19) | -0.2 | enough cells in well | 121 | 125 | inactive |
| Epb41l4b (erythrocyte membrane protein band 4.1 like 4b) | 0.24 | enough cells in well | 254 | 152 | inactive |
| Alpk3 (alpha-kinase 3) | 0.75 | enough cells in well | 300 | 152 | inactive |
| Cdc14b (CDC14 cell division cycle 14B) | -0.58 | enough cells in well | 180 | 184 | inactive |
| Dennd1a (DENN domain containing 1A) | -0.2 | enough cells in well | 162 | 140 | inactive |
| Cyp4f39 (cytochrome P450, family 4, subfamily f, polypeptide 39) | – | fewer than 50 cells per well; well left out of calls | 172 | 67.5 | inactive |
| Prkaa1 (protein kinase, AMP-activated, alpha 1 catalytic subunit) | -0.64 | enough cells in well | 198 | 85.7 | inactive |
